Experimental data as given in US5021595A, “Transition metal catalyst composition for olefin polymerization” (Exxon Chemical Patents Inc., priority 1990, dated 1991).

Assay: Copolymerization of norbornene type monomers with ethylene/propylene in CFSTR
Conditions: 30° C.
Method: Polymerization experiments were conducted in a continuous flow stirred tank reactor process wherein norbornene type monomers such as norbornene and 5-ethylidene-2-norbornene (ENB) are copolymerized employing the invention catalysts. The polymerization was conducted under the following conditions:
Ethyl aluminum sesquichloride:
Tetraethoxysilane at .208 gms/hr

With “Bis hexanoate mono chloro vanadium (+3) [Catalyst Code 1]” the “Wt % monomer in polymer” value (Condition A: no norbornene monomer) was 0.0 WT %, the “Wt % monomer in polymer” value (Condition B: Norbornene at 10.3 gms/hr) was 6.4 WT % and the “Wt % monomer in polymer” value (Condition C: Norbornene at 20.6 gms/hr) was 12.4 WT %. For the same substance, the “Wt % monomer in polymer” value (Condition D: ENB at 12.4 gms/hr + Tetraethoxysilane at .208 gms/hr) was 9.5 WT %.
